Binding data for three substances are collected here from article doi:10.1101/2020.06.17.156455.

The chains behind the UniProt entries cited, without tags or fusion partners.
UniProt P0DMV8, whole entry: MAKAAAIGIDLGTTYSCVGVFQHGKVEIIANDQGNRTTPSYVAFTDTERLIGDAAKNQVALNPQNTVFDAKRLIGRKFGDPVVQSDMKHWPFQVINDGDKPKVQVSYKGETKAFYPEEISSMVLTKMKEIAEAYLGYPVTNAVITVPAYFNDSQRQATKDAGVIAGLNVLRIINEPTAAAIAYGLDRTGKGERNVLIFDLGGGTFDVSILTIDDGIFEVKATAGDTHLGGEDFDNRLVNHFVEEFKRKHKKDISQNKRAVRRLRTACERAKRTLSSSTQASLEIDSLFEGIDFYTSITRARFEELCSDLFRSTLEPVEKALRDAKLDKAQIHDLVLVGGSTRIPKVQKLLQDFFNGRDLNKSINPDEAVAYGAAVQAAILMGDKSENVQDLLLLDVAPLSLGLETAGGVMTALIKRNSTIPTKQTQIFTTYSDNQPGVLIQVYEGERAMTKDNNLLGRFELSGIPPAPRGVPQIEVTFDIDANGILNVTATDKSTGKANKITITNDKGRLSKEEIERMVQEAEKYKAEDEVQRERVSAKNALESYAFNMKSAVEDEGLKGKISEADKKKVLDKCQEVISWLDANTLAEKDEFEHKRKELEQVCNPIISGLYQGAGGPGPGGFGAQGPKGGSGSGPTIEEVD
UniProt Q7Z434, whole entry: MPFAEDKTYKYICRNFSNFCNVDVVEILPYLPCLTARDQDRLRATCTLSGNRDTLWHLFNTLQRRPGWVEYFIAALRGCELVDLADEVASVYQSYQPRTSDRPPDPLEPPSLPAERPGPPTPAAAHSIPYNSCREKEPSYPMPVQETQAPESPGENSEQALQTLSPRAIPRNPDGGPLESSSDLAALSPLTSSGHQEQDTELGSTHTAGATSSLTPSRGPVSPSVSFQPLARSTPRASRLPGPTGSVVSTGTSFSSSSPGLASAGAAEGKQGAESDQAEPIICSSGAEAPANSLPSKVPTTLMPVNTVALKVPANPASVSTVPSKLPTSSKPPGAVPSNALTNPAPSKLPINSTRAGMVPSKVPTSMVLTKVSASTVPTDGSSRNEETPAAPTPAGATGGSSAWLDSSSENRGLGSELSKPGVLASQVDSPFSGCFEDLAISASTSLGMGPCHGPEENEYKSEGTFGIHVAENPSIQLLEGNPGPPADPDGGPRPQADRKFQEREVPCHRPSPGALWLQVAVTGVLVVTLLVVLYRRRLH

Holding throughout (assay): co-IP
In assay [1] the target is SARS-CoV N-HA (HEK293T) (SARS-CoV) (UniProt P59595).
Assay [2] has as its target SARS-CoV-2 ORF7b-HA (HEK293T) (SARS-CoV-2) (UniProt P0DTD8).
The next assay deals with T1, SII-HA-UNC93B1 (UniProt Q9H1C4).
T1 sequence: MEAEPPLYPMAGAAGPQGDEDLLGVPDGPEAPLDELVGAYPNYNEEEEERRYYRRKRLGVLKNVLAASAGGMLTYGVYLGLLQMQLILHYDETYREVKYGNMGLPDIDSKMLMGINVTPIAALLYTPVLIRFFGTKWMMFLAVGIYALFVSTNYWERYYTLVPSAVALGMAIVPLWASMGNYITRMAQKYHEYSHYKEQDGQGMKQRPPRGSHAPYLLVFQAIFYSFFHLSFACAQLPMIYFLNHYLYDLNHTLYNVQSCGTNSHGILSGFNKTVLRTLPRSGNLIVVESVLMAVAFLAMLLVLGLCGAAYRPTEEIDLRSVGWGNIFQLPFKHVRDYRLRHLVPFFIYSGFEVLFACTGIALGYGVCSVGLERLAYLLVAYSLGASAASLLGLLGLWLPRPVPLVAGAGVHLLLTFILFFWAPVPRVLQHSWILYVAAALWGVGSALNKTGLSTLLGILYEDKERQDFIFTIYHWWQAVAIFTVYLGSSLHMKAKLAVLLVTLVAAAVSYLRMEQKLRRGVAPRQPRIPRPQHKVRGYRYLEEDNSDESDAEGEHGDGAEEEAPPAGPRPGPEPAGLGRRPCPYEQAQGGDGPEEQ

No constants are given. Whether binding was seen depends on the method and setting. In cells and extracts the contact can be indirect. Some entries that bind do so weakly or less than the wild type. For part of these data: Where a sequence is shown, tags or fusion partners need not be part of it.

In the case of “HSPA1A (endogenous, HEK293T) (from UniProt P0DMV8 1-641)”, in assay [1], the binding entry is recorded as “binds”.
For “MAVS (endogenous, HEK293T) (from UniProt Q7Z434 1-540)”, the binding entry in assay [2] is on record as “binds”.
For the substance “SARS-CoV-2 ORF7b-HA (HEK293T) (from UniProt P0DTD8 1-43)”, the binding entry with SII-HA-UNC93B1 is given as “binds”.
